In paper PMC10488071:
These are yes or no findings as the source states them, for the method shown. Binding seen in cells or lysates may run through a third protein. Some results given as binding are weak or reduced against the parent protein; the word gives no strength.

Amino acid sequences for entries named in this document (tags omitted).
UniProt Q8VDP4: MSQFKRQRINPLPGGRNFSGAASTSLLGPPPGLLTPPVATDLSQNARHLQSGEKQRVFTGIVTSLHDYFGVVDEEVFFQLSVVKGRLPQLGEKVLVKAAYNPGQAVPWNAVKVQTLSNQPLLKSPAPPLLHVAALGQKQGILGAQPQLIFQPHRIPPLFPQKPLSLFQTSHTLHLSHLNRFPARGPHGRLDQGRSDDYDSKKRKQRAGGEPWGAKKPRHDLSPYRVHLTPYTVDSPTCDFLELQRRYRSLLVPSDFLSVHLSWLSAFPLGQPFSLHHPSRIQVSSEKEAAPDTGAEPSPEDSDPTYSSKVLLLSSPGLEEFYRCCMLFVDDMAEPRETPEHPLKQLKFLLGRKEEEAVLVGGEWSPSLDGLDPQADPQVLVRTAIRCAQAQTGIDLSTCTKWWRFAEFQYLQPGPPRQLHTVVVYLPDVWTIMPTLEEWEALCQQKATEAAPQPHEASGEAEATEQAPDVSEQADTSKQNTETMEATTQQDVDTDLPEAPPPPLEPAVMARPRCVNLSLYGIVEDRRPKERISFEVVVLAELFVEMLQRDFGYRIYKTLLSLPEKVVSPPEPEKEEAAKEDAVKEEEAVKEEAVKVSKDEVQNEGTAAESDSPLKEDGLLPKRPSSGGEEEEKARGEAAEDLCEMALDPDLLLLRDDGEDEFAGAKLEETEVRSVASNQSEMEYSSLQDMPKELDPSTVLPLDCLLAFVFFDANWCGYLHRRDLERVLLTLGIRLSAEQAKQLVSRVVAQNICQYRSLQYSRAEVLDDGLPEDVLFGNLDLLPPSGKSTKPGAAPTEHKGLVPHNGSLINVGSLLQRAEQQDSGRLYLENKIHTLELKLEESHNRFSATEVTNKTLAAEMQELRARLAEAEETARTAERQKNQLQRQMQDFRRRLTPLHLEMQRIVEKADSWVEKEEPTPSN
UniProt O09106: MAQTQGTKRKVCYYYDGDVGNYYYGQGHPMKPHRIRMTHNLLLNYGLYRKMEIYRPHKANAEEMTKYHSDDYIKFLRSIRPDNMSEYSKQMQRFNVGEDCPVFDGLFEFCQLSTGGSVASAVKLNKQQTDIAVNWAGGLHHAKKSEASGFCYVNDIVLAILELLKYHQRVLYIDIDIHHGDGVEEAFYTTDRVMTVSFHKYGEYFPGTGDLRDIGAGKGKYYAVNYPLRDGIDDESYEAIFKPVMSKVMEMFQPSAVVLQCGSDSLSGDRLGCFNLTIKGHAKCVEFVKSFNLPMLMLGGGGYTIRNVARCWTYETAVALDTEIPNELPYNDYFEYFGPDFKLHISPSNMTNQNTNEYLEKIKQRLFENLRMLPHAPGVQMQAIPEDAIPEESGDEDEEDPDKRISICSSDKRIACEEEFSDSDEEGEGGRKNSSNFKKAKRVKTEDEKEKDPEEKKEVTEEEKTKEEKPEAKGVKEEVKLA

What was measured:
[1] = biological target: CCAR2 (mouse (endogenous in IDG-SW3)) (UniProt Q8VDP4); assay: co-IP; nuclear extracts from IDG-SW3 cells (also mock and lncRNA953Rik-overexpressing cells) precipitated with anti-CCAR2 antibody or control IgG on Dynabeads Protein G, 4 degrees overnight, 50 mM Tris-HCl pH 8.0, 0.1 mM EDTA, 5% glycerol, 100 mM KCl, 0.1% NP-40; immunoblot for HDAC1, HDAC2, HDAC3
[2] = biological target: histone deacetylase 1 (HDAC1) (mouse (endogenous in IDG-SW3)) (UniProt O09106); assay: co-IP; reciprocal: nuclear extracts from IDG-SW3 cells precipitated with anti-HDAC1 or anti-HDAC2 antibody or control IgG on Dynabeads Protein G, 4 degrees overnight, 50 mM Tris-HCl pH 8.0, 0.1 mM EDTA, 5% glycerol, 100 mM KCl, 0.1% NP-40; immunoblot for CCAR2

binding [1] | binding [2] | Substance
binds |  | histone deacetylase 1 (HDAC1) (from UniProt O09106 1-482)
 | binds | CCAR2 (from UniProt Q8VDP4 1-922)
